About 620 (0.19%) of roughly 320,000 compounds were called active. Inconclusive means that the source gave no clear call. Such entries were picked first, then a sample of the others. Calls come from the whole dose curve; as a rule, active = well fitted activation curve with a large enough effect; inconclusive = small, poorly fitted or top-dose-only effect; inactive = no such curve, though single readings can be large or run the other way. A potency beside an inconclusive call is a rough fit, not a confirmed value.
Experiment: qHTS Assay for Identifying a Potential Treatment of Ataxia-Telangiectasia; note: nearly all actives have a fitted effect of over 45% in size
Conditions: […] A-T fibroblasts, KAP-1 phosphorylation AlphaLISA, neocarzinostatin DNA damage 30 min before lysis; series mostly up to 57.5 µM
Text: NIH Chemical Genomics Center [NCGC] NIH Molecular Libraries Probe Centers Network [MLPCN] MLPCN Grant: MH089030-01 Assay Submitter (PI): Wei Zheng and Yosef Shiloh Ataxia-telangiectasia (A-T) is a devastating and progressive disease for which, there is no cure. Although A-T is a multisystem disease, it is stereotyped characterized by its neurological symptoms such as truncal ataxia, due to cerebellar cortical degeneration of the Purkinje and granule cells. Other symptoms of A-T are telangiectasias (dilated blood vessels), primary immunodeficiency, marked sensitivity to ionizing radiation (IR), chromosomal instability and predisposition to cancer. The underlying genetic cause of A-T is null mutations in the ATM (A-T mutated) gene. ATM is a nuclear serine/threonine kinase that functions as a master regulator of the cellular responses to double strand breaks (DSBs) in the DNA. Upon activation by DSBs, ATM phosphorylates a plethora of down stream targets, including KAP-1 on […]. KAP-1 phosphorylation occurs shortly in response to DSBs and mediates global chromatin relaxation, which facilitates DSB repair. To screen for small molecules that will compensate for the loss of ATM in cells derived from A-T patients, we monitored KAP-1 phosphorylation as a readout for ATM-like activity using an AlphaLISA assay.
qHTS Assay Protocol: Step,Parameter,Value,Description 1. Cell Plating, 3 ul, 500 cells/well in OPTI-MEM, 1% FBS, 1% Pen/Strep 2. Incubation, 16-24 hr, 37C, 5% CO2, 95% humidity 3. Library compounds, 23 nl, 76.7 - 0.61uM dilution series final concentration 4. Incubation, 60 min, 37C, 5% CO2, 95% humidity 5. Reagent, 1 ul, 1600 ng/ml NCS in PBS + 0.05% BSA + 0.005% Tween 20 6. Incubation, 30 min, 37C, 5% CO2, 95% humidity 7. Reagent, 1 ul, Premixed detection reagents and lysis buffer 8. Reagent, 1 ul, 0.6% Antifoam A 9. Incubation, 6 hr, 25C, 95% humidity 10. Readout, EnVision, EnVision plate reader. AlphaScreen 1536-well protocol Cells were plated using medium-binding white solid-bottom tissue culture treated Kalypsys plates. Multidrop dispense of 3 uL of […] (hTERT immortalized A-T patient fibroblast cells). Detection reagent and lysis buffer was 3.75nM Rab-a-pKAP1 antibody bound to 75 ng/ul AlphaScreen SA donor bead, 3.75 nM Biot-M-a-KAP1 antibody bound to AlphaLISA protein A acceptor bead, 0.5x protease inhibitor cocktail and 0.25x PerkinElmer lysis buffer. EnVision protocol for 1536-well AlphaScreen read (30ms excitation, 100ms read), about 10 min/plate.
Potency is the fitted concentration of half-maximal effect.

Which Potency does the source give for `FC(F)(F)c1cc(CCN2C(=S)NC[C@@H]2c2ccccc2)cc(C(F)(F)F)c1` here?
The Potency was active: 35.5 µM.

Which Potency does the source give for `CCOc1cccc(C(=O)Nc2ccccc2N2CCN(C(=O)C(C)C)CC2)c1` here?
The Potency was inconclusive: 2.82 µM [activator, partial curve].

For `COC(=O)[C@]1(Cc2ccccc2)N[C@H](CN(C)C(=O)c2ccc(F)cc2)[C@@H]2C(=O)N(C)C(=O)[C@@H]21`, which Potency is on record?
The Potency was inconclusive: 31.6 µM [activator, partial curve].

For `CCC(C)Sc1cccc(-c2nc3cc(C)ccn3c2NCc2ccccc2)c1` (stereo not drawn), which Potency is on record?
The Potency was active: 22.4 µM.

For `Cc1c(CCC(=O)NCCCCCC(=O)O)c(=O)oc2cc3occ(-c4ccccc4)c3cc12`, which Potency is on record?
The Potency was active: 8.91 µM.

Which Potency does the source give for `N#Cc1nc(COc2ccccc2F)oc1NCc1ccc(F)cc1` here?
Its Potency is active: 31.6 µM.

Which Potency does the source give for `Cc1nnsc1C(=O)NCc1c(F)cccc1Cl` here?
The Potency was inconclusive: 0.631 µM [activator, full curve, poor fit].

For `CCN(CC(=O)NCc1cccs1)c1ccc(S(=O)(=O)N2CCCC2)cn1`, which Potency is on record?
The Potency was inconclusive: 8.91 µM [activator, full curve, poor fit].

For `OCc1cn(Cc2ccc(O)c3ncccc23)cn1`, which Potency is on record?
Its Potency is “inactive”.

With `c1ccc(-c2nc(N3CCCC3)nc3ccccc23)cc1` as the molecule, how does the Potency read?
Its Potency is “inactive”.

For `Cc1ccc(-c2nc3cc(Cl)ccc3o2)cc1`, which Potency is on record?
Its Potency is “inactive”.

With `O=C(Nc1cccc([N+](=O)[O-])c1)N1CCCc2ccccc21` as the molecule, how does the Potency read?
The Potency was inconclusive: 1.12 µM [activator, full curve].

Which Potency does the source give for `COc1cc(C(=S)N2CCCC2)ccc1OS(=O)(=O)c1ccc(NC(C)=O)cc1` here?
Its Potency is inconclusive: 0.631 µM [activator, partial curve, poor fit].

For `CCc1c(-c2ccccc2)nc2nc(C)c(C)nn12`, which Potency is on record?
Its Potency is inconclusive: 31.6 µM [activator, partial curve].

For `O=C(Nn1c(-c2ccccc2)nc2ccccc2c1=O)c1ccco1`, which Potency is on record?
Its Potency is inconclusive: 39.8 µM [activator, single point].

With `C/C=C\C=C/C(=O)Nc1cccc(C2=NOC3(C2)C[C@@H](C(N)=O)N(C(=O)/C=C/C=C\C)C3)c1` (stereo partly drawn) as the molecule, how does the Potency read?
Its Potency is inconclusive: 31.6 µM [activator, single point].

Which Potency does the source give for `COCCN1CSC(=S)N(Cc2ccco2)C1` here?
Its Potency is “inactive”.

For `O=C(/C=C/c1ccco1)NCC1COc2ccccc2O1` (stereo not drawn), which Potency is on record?
The Potency was active: 25.1 µM.

With `COc1cc([C@@H]2c3cc4c(cc3[C@@H](O)[C@H]3COC(=O)[C@H]23)OCO4)cc(OC)c1O[Si](C)(C)C(C)(C)C` as the molecule, how does the Potency read?
The Potency was inconclusive: 35.5 µM [activator, single point].

For `COCCNCC(=O)NC12CC3CC(CC(C3)C1)C2`, which Potency is on record?
Its Potency is inconclusive: 35.5 µM [activator, partial curve, poor fit].

Which Potency does the source give for `O=C(Nc1ccc(N2CCCC2)cc1)c1ccc(Cl)cc1Cl` here?
The Potency was inconclusive: 0.631 µM [activator, partial curve, poor fit].

With `Cc1ccc(CS(=O)(=O)c2cn(CC(=O)N3CCOCC3)c3ccccc23)cc1` as the molecule, how does the Potency read?
The Potency was inconclusive: 39.8 µM [activator, single point].

For `CCN1C(=O)c2cccc3c(S(=O)(=O)N4CCC(C)CC4)ccc1c23`, which Potency is on record?
The Potency was inconclusive: 28.2 µM [activator, single point].

Which Potency does the source give for `O=C(Nc1ccc2oc(=O)ccc2c1)c1ccc(-c2cccc(Cl)c2)o1` here?
Its Potency is inconclusive: 3.16 µM [activator, partial curve].

Which Potency does the source give for `Cn1nnnc1SCC(=O)N1CCN(C(=O)c2ccco2)CC1` here?
Its Potency is inconclusive: 39.8 µM [activator, partial curve].

For `Cn1c2ccccc2c(=O)c2ccc(C#CC3(N)CCCCC3)cc21`, which Potency is on record?
Its Potency is inconclusive: 39.8 µM [activator, single point].

For `O=C(CCN1CCOCC1)c1ccc2c(c1)OCCO2`, which Potency is on record?
The Potency was “inactive”.

Which Potency does the source give for `Cc1ccc(/C=C2\SC(=S)N(CCCC(=O)Nc3cccnc3)C2=O)cc1` here?
Its Potency is inconclusive: 7.08 µM [activator, single point].

For `COc1ccc(Cl)cc1S(=O)(=O)N1CCCC(C(=O)NCCc2ccccc2)C1` (stereo not drawn), which Potency is on record?
The Potency was inconclusive: 11.2 µM [activator, partial curve].

With `COC(=O)c1ccc(NC(=O)COC(=O)CSc2nc(C)cc(C)n2)cc1` as the molecule, how does the Potency read?
Its Potency is “inactive”.

With `Cc1ccccc1OCC(=O)O/N=C(\N)c1ccncc1` as the molecule, how does the Potency read?
The Potency was inconclusive: 31.6 µM [activator, partial curve].

With `COc1ccc(N(CC(=O)NCCC2=CCCCC2)S(=O)(=O)c2ccccc2)cc1` as the molecule, how does the Potency read?
The Potency was inconclusive: 0.631 µM [activator, full curve, poor fit].

With `COc1cc(/C=N/NC(=O)c2c(C)nc3ccc(Cl)cn23)cc(OC)c1OC` as the molecule, how does the Potency read?
Its Potency is inconclusive: 39.8 µM [activator, single point].

Which Potency does the source give for `COc1ccc(-n2c(C)cc(/C=C3\C(=N)N4N=C(CC(=O)N5CCOCC5)SC4=NC3=O)c2C)cc1` here?
Its Potency is inconclusive: 25.1 µM [activator, partial curve, poor fit].

Which Potency does the source give for `COc1ccc(/C=C/C(=O)c2ccc([N+](=O)[O-])o2)cc1OC` here?
Its Potency is inconclusive: 7.08 µM [activator, single point].

Which Potency does the source give for `CCCn1nc(NC(=O)c2cccs2)c2cc3cc(OC)ccc3nc21` here?
Its Potency is inconclusive: 39.8 µM [activator, single point].

Which Potency does the source give for `O=C(NCCc1cccnc1)c1cc(COc2ccc(F)cc2Cl)on1` here?
The Potency was inconclusive: 3.16 µM [activator, partial curve].

Which Potency does the source give for `COc1ccc(/C=N/NC(=O)c2sc3nc(C)cc(C)c3c2N)cc1` here?
Its Potency is inconclusive: 0.891 µM [activator, full curve, poor fit].

For `Cc1nnc(SCc2cccs2)[nH]c1=O`, which Potency is on record?
Its Potency is “inactive”.

Which Potency does the source give for `CCOC(=O)C(CCCP(=O)(c1ccccc1)c1ccccc1)(NC(C)=O)C(=O)OCC` here?
Its Potency is inconclusive: 39.8 µM [activator, single point].

With `CCOC(=O)CNS(=O)(=O)Cc1ccccc1` as the molecule, how does the Potency read?
Its Potency is inconclusive: 7.08 µM [activator, single point].

For `NC(=O)[C@H]1CC2(CC(c3cccc(NC(=O)CC(c4ccccc4)c4ccccc4)c3)=NO2)CN1C(=O)CC(c1ccccc1)c1ccccc1` (stereo partly drawn), which Potency is on record?
Its Potency is inconclusive: 39.8 µM [activator, single point].

With `c1ccc2c(-c3c[nH]c4ccccc34)c3ccccc3nc2c1` as the molecule, how does the Potency read?
Its Potency is “inactive”.

Which Potency does the source give for `COc1ccc(-c2nnn(CCc3nn[nH]n3)n2)cc1OC` here?
The Potency was inconclusive: 14.1 µM [activator, partial curve].

Which Potency does the source give for `CC(=O)NNC(=O)CN1C(=O)/C(=C/c2ccccc2)SC1=S` here?
Its Potency is active: 3.16 µM.

For `CCS(=O)c1ccccc1C(=O)OCC(=O)Nc1ccc2ccccc2c1` (stereo not drawn), which Potency is on record?
Its Potency is “inactive”.

With `O=C(NCc1cccnc1)c1ccc(S(=O)(=O)N2CCCCCC2)cc1` as the molecule, how does the Potency read?
The Potency was “inactive”.

For `Cc1cc(C)n(-c2nc(NCCCN(C)C)c3c4c(sc3n2)CCCC4)n1`, which Potency is on record?
Its Potency is inconclusive: 0.891 µM [activator, full curve, poor fit].

For `Cn1cnc([N+](=O)[O-])c1Sc1nc2ccccc2[nH]1`, which Potency is on record?
Its Potency is inconclusive: 28.2 µM [activator, single point].

With `O=C(Oc1ccc(C(=S)N2CCCCC2)cc1)c1ccccc1F` as the molecule, how does the Potency read?
Its Potency is “inactive”.

Which Potency does the source give for `CC1(C)CC(=O)C2=C(C1)N1CCCCC1CC2=O` (stereo not drawn) here?
The Potency was inconclusive: 3.16 µM [activator, partial curve].

For `C/C=C/C(O)c1ccc2ccccc2c1` (stereo not drawn), which Potency is on record?
Its Potency is inconclusive: 28.2 µM [activator, partial curve].

With `CC(C)(C)C1(O)CC(C(F)(F)F)=NN1C(=O)CCc1ccccc1` (stereo not drawn) as the molecule, how does the Potency read?
The Potency was inconclusive: 39.8 µM [activator, single point].

Which Potency does the source give for `COc1ccc(C2Nc3ccccc3C(=O)N2c2ccc(Cl)cc2)cc1Cn1cc([N+](=O)[O-])cn1` (stereo not drawn) here?
The Potency was “inactive”.

With `CCOC(=O)N1CC=C2C(C#N)=C(N)C(C#N)(C#N)[C@H](c3ccccc3OCC)[C@H]2C1` as the molecule, how does the Potency read?
The Potency was “inactive”.

With `Cc1ccccc1C(=O)Nc1ccccc1C(=O)NCc1ccccc1` as the molecule, how does the Potency read?
Its Potency is “inactive”.

For `O=C(C#Cc1cccc([N+](=O)[O-])c1)c1ccccc1`, which Potency is on record?
Its Potency is “inactive”.

With `CSc1ccc(NC(=O)N2CCC(C(=O)c3ccc(F)cc3)CC2)cc1` as the molecule, how does the Potency read?
The Potency was “inactive”.

Which Potency does the source give for `CCCCOC(=O)CSc1nc2c(c(=O)[nH]c(=O)n2C)n1C/C=C(\C)Cl` here?
Its Potency is inconclusive: 39.8 µM [activator, partial curve].

Which Potency does the source give for `CCN(CC(=O)NCc1cccs1)C(=O)CCC(=O)c1ccc(F)cc1` here?
The Potency was inconclusive: 3.55 µM [activator, single point].

Which Potency does the source give for `O=C(OCc1csc(-c2ccccc2)n1)c1ccccc1O` here?
The Potency was inconclusive: 20 µM [activator, partial curve, poor fit].

Which Potency does the source give for `O=C1NC[C@@H](Cc2ccc(O)cc2)N(CCc2cccc(F)c2)C1=O` here?
Its Potency is inconclusive: 3.55 µM [activator, single point].

For `Nc1ccc(S(=O)(=O)N2CCCC2C(=O)O)cc1` (stereo not drawn), which Potency is on record?
Its Potency is inconclusive: 0.708 µM [activator, full curve, poor fit].

Which Potency does the source give for `Cc1cccc(NC(=O)CNC(=O)CSc2ncccn2)c1C` here?
The Potency was inconclusive: 5.62 µM [activator, single point].

With `CC(=O)C[C@@H](O)CC(=O)[C@@H]1OC(=O)CC/C=C\Cc2ccccc21` as the molecule, how does the Potency read?
The Potency was inconclusive: 39.8 µM [activator, single point].

With `NC(=O)C1c2ccccc2Oc2ccccc21` as the molecule, how does the Potency read?
Its Potency is inconclusive: 3.16 µM [activator, partial curve].

With `CCOC(=O)/C(=C\c1ccc(Cl)cc1)c1nc2sc(C)c(C)c2c(=O)[nH]1` as the molecule, how does the Potency read?
Its Potency is inconclusive: 14.1 µM [activator, partial curve].

For `COc1cc(OC)cc(C(=O)Nc2ccc3c(c2)OCCO3)c1`, which Potency is on record?
The Potency was inconclusive: 31.6 µM [activator, partial curve].

Source: PubChem BioAssay AID485349 (National Center for Advancing Translational Sciences (NCATS), 2010)
